Test results as given in the supplement of paper PMC6078165.
The reference is the same well before dosing, and untreated signal decays as well.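 Fibroblast labels denote human fibroblasts, mainly primary ones from uterus (C12385, HUF), lung (H6013), bone (Hs27A), adrenal (HADF) and skin (WS1), plus mammary HMF and breast cancer-associated Hs343T. Cancer cells are basal-like or mesenchymal-like triple-negative breast cancer lines. A hit is a response shift exceeding 3x replicate standard deviation. The tissue of the other fibroblasts is not given here.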

Test system: HCC1143
Assay: relative JC-1 red fluorescence (viability) vs pre-drug, coculture with fibroblast (fraction); higher = more viable cancer cells
Protocol: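 JC-1 labelled TNBC cells cocultured 1:1 (1,500 cells each) with CellTrace Violet stained primary or stromal fibroblasts in 384-well plates in FluoroBrite medium, treated with one of 42 anticancer drugs at 0.1, 1, 10 or 100 uM. JC-1 red fluorescence (mitochondrial integrity in cancer cells only) was read by plate reader every 8 h for 72 h. Values are normalised to each well's pre-drug value. The stock of one drug was tenfold lower, so its dose labels may be too high.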

CO[C@H]1C[C@@H]2CC[C@@H](C)[C@@](O)(O2)C(=O)C(=O)N2CCCC[C@H]2C(=O)O[C@H]([C@H](C)C[C@@H]2CC[C@@H](O)[C@H](OC)C2)CC(=O)[C@H](C)/C=C(\C)[C@@H](O)[C@@H](OC)C(=O)[C@H](C)C[C@H](C)/C=C/C=C/C=C/1C [Rapamycin]
relative JC-1 red fluorescence
Conditions	8 h	16 h	24 h	32 h	40 h	48 h	56 h	64 h	72 h
0.1 µM, coculture fibroblast: C12385	0.84	0.76	0.67	0.614	0.543	0.492	0.453	0.411	0.397
0.1 µM, coculture fibroblast: H6013	0.749	0.683	0.653	0.63	0.577	0.584	0.559	0.554	0.519
0.1 µM, coculture fibroblast: H6019	0.793	0.727	0.68	0.619	0.596	0.585	0.558	0.543	0.525
0.1 µM, coculture fibroblast: H6076	0.794	0.814	0.752	0.679	0.6365	0.6144	0.577	0.5549	0.5587
0.1 µM, coculture fibroblast: H6231	0.825	0.854	0.795	0.646	0.684	0.652	0.614	0.579	0.56
0.1 µM, coculture fibroblast: HADF	0.726	0.673	0.65	0.662	0.5492	0.533	0.505	0.484	0.492
0.1 µM, coculture fibroblast: HCFa	0.764	0.672	0.629	0.616	0.514	0.484	0.448	0.409	0.411
0.1 µM, coculture fibroblast: HCPF	0.845	0.8475	0.793	0.724	0.714	0.677	0.636	0.6	0.6
0.1 µM, coculture fibroblast: HHSteC	0.827	0.7627	0.733	0.695	0.612	0.593	0.549	0.524	0.487
0.1 µM, coculture fibroblast: HMF	0.809	0.848	0.79	0.703	0.712	0.684	0.651	0.609	0.58
0.1 µM, coculture fibroblast: HPFa	0.9009	0.798	0.768	0.6743	0.616	0.5965	0.553	0.522	0.494
0.1 µM, coculture fibroblast: HUF	0.856	0.799	0.736	0.652	0.613	0.59	0.554	0.53	0.517
0.1 µM, coculture fibroblast: Hs5	0.8348	0.9158	0.8448	0.784	0.72	0.679	0.633	0.598	0.575
0.1 µM, coculture fibroblast: Hs27A	0.657	0.556	0.519	0.548	0.417	0.406	0.37	0.347	0.356
0.1 µM, coculture fibroblast: Hs343T	0.8164	0.867	0.813	0.71956	0.695	0.658	0.603	0.578	0.543
0.1 µM, coculture fibroblast: WS1	0.8296	0.762	0.7036	0.606	0.542	0.4925	0.445	0.4164	0.394
1 µM, coculture fibroblast: C12385	0.8548	0.823	0.782	0.727	0.665	0.631	0.598	0.562	0.546
1 µM, coculture fibroblast: H6013	0.738	0.661	0.631	0.621	0.542	0.533	0.498	0.491	0.485
1 µM, coculture fibroblast: H6019	0.827	0.77	0.728	0.67	0.625	0.605	0.582	0.567	0.547
1 µM, coculture fibroblast: H6076	0.7962	0.844	0.825	0.763	0.739	0.723	0.698	0.68	0.688
1 µM, coculture fibroblast: H6231	0.8165	0.819	0.765	0.68	0.671	0.641	0.618	0.591	0.581
1 µM, coculture fibroblast: HADF	0.748	0.724	0.711	0.729	0.65	0.64	0.62	0.601	0.608
1 µM, coculture fibroblast: HCFa	0.761	0.712	0.684	0.671	0.579	0.554	0.511	0.485	0.471
1 µM, coculture fibroblast: HCPF	0.7833	0.867	0.822	0.659	0.716	0.668	0.635	0.607	0.595
1 µM, coculture fibroblast: HHSteC	0.844	0.786	0.771	0.749	0.663	0.634	0.586	0.562	0.533
1 µM, coculture fibroblast: HMF	0.803	0.894	0.85	0.721	0.7542	0.713	0.674	0.641	0.622
1 µM, coculture fibroblast: HPFa	0.987	0.96863	0.9454	0.846	0.808	0.777	0.726	0.7	0.678
1 µM, coculture fibroblast: HUF	0.871	0.819	0.777	0.699	0.656	0.63	0.59	0.567	0.542
1 µM, coculture fibroblast: Hs5	0.847	0.89	0.8452	0.7945	0.732	0.687	0.661	0.634	0.628
1 µM, coculture fibroblast: Hs27A	0.703	0.644	0.618	0.652	0.518	0.515	0.481	0.465	0.467
1 µM, coculture fibroblast: Hs343T	0.8156	0.93	0.893	0.756	0.78	0.74	0.687	0.658	0.643
1 µM, coculture fibroblast: WS1	0.856	0.801	0.748	0.663	0.608	0.563	0.527	0.504	0.485
10 µM, coculture fibroblast: C12385	0.745	0.719	0.708	0.673	0.637	0.629	0.611	0.581	0.565
10 µM, coculture fibroblast: H6013	0.667	0.607	0.627	0.68	0.644	0.66	0.643	0.638	0.64
10 µM, coculture fibroblast: H6019	0.702	0.628	0.625	0.602	0.595	0.585	0.562	0.548	0.546
10 µM, coculture fibroblast: H6076	0.7202	0.82	0.804	0.729	0.755	0.725	0.683	0.66	0.662
10 µM, coculture fibroblast: H6231	0.708	0.865	0.851	0.634	0.767	0.724	0.688	0.649	0.616
10 µM, coculture fibroblast: HADF	0.621	0.555	0.577	0.627	0.537	0.539	0.522	0.51	0.537
10 µM, coculture fibroblast: HCFa	0.6807	0.5977	0.604	0.651	0.599	0.606	0.588	0.572	0.576
10 µM, coculture fibroblast: HCPF	0.791	0.904	0.873	0.795	0.96	0.902	0.853	0.799	0.748
10 µM, coculture fibroblast: HHSteC	0.718	0.683	0.728	0.744	0.695	0.723	0.716	0.724	0.705
10 µM, coculture fibroblast: HMF	0.7032	0.8306	0.8	0.69	0.764	0.743	0.706	0.684	0.651
10 µM, coculture fibroblast: HPFa	0.7934	0.7549	0.781	0.746	0.6975	0.69	0.644	0.611	0.58
10 µM, coculture fibroblast: HUF	0.772	0.708	0.643	0.573	0.529	0.515	0.471	0.45	0.425
10 µM, coculture fibroblast: Hs5	0.723	0.819	0.809	0.772	0.73	0.689	0.651	0.622	0.618
10 µM, coculture fibroblast: Hs27A	0.555	0.485	0.498	0.556	0.452	0.458	0.432	0.411	0.432
10 µM, coculture fibroblast: Hs343T	0.737	0.859	0.854	0.743	0.76	0.704	0.63292	0.5875	0.54744
10 µM, coculture fibroblast: WS1	0.734	0.699	0.716	0.699	0.674	0.66	0.629	0.6074	0.586
100 µM, coculture fibroblast: C12385	0.6385	0.511	0.373	0.255	0.209	0.164	0.129	0.149	0.167
100 µM, coculture fibroblast: H6013	0.638	0.501	0.398	0.365	0.281	0.234	0.19445	0.187	0.149
100 µM, coculture fibroblast: H6019	0.7175	0.606	0.465	0.384	0.313	0.245	0.173	0.167	0.19
100 µM, coculture fibroblast: H6076	0.6224	0.63	0.532	0.443	0.369	0.318	0.265	0.237	0.257
100 µM, coculture fibroblast: H6231	0.782	0.8674	0.897	0.783	0.838	0.791	0.589	0.476	0.478
100 µM, coculture fibroblast: HADF	0.5757	0.524	0.442	0.453	0.348	0.287	0.245	0.18	0.115
100 µM, coculture fibroblast: HCFa	0.668	0.516	0.424	0.39	0.291	0.241	0.194	0.152	0.105
100 µM, coculture fibroblast: HCPF	0.651	0.711	0.702	0.601	0.604	0.53	0.429	0.35	0.353
100 µM, coculture fibroblast: HHSteC	0.725	0.587	0.475	0.398	0.317	0.26329	0.228	0.234	0.218
100 µM, coculture fibroblast: HMF	0.654	0.656	0.536	0.448	0.375	0.336	0.311	0.291	0.295
100 µM, coculture fibroblast: HPFa	0.818	0.603	0.4569	0.4581	0.332	0.24754	0.2343	0.2656	0.284
100 µM, coculture fibroblast: HUF	0.788	0.698	0.61	0.479	0.404	0.389	0.374	0.355	0.326
100 µM, coculture fibroblast: Hs5	0.7	0.6928	0.623	0.589	0.491	0.42	0.362	0.336	0.375
100 µM, coculture fibroblast: Hs27A	0.661	0.645	0.6	0.63	0.475	0.462	0.407	0.37	0.288
100 µM, coculture fibroblast: Hs343T	0.7	0.7922	0.767	0.7	0.646	0.574	0.492	0.443	0.4
100 µM, coculture fibroblast: WS1	0.721	0.643	0.5124	0.414	0.348	0.273	0.255	0.281	0.306
